From publication PMC7372886
These are yes or no findings as the source states them, for the method shown. Binding seen in cells or lysates may run through a third protein. Some entries that bind do so weakly or less than the wild type. Each block holds one binder with its values, some of them ahead of it.

Amino acid sequences for entries named in this document (tags omitted).
UniProt P49327: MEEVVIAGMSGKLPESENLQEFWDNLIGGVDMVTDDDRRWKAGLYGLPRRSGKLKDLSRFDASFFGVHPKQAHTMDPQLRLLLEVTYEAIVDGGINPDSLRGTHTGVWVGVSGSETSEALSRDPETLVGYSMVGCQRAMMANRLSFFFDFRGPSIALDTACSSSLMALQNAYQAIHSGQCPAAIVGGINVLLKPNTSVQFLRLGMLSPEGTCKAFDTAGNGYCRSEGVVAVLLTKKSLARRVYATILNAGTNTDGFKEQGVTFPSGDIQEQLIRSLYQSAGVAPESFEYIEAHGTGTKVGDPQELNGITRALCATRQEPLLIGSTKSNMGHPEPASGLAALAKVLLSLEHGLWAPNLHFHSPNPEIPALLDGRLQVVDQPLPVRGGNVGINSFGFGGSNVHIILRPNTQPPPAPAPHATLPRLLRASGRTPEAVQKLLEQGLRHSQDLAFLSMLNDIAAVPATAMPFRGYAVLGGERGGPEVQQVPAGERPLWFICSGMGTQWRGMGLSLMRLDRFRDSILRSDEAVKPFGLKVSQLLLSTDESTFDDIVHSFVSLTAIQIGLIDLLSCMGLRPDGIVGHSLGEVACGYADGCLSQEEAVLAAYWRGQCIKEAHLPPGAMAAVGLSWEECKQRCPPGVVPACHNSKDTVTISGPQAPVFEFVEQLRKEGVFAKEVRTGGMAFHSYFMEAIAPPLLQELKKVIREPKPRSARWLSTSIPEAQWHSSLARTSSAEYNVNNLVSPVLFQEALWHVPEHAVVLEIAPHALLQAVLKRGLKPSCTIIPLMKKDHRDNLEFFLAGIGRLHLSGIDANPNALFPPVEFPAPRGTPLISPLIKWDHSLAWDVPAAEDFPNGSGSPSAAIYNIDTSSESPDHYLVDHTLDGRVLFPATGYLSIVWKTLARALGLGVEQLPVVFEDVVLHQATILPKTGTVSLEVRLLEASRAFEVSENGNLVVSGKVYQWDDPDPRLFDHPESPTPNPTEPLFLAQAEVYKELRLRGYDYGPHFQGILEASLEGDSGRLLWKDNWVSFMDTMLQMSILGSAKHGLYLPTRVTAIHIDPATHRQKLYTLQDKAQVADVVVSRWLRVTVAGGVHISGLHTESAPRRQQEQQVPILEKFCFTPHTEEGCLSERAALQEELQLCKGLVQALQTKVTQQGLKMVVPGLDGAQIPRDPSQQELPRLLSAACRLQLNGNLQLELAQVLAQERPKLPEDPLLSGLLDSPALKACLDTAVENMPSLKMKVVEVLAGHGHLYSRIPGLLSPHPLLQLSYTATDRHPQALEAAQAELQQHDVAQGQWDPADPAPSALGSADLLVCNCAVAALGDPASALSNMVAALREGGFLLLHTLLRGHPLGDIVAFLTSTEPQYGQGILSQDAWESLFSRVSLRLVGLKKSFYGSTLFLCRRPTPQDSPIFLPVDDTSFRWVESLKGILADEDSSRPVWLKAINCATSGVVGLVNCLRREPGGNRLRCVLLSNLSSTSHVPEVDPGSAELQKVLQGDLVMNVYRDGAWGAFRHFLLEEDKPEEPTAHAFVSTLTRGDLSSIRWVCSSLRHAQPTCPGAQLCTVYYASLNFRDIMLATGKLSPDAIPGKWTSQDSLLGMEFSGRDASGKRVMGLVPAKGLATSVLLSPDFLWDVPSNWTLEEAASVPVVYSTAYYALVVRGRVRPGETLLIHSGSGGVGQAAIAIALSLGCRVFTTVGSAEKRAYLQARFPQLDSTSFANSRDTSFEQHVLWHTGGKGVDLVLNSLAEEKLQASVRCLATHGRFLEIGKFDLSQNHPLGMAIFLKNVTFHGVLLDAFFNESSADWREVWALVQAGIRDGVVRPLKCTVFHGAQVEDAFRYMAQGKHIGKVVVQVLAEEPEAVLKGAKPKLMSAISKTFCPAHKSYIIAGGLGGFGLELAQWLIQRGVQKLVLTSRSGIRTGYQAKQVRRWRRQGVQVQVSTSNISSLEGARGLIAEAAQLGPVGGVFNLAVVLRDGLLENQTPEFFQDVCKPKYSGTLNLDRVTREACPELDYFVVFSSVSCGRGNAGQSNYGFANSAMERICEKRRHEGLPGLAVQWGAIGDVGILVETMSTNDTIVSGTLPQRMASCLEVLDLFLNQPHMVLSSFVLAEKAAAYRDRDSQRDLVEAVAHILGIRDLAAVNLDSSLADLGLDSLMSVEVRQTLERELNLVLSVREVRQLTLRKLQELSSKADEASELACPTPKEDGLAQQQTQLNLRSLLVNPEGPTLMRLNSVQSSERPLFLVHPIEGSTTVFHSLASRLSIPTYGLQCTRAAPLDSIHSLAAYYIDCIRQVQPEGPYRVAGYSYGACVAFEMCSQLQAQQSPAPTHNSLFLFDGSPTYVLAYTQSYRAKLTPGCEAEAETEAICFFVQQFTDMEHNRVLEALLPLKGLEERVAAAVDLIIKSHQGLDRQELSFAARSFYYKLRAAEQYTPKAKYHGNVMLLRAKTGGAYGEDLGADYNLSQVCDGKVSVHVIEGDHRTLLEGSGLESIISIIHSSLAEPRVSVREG

Target: Fatty acid synthase (human (endogenous in HepG2 and SMMC7721)) (UniProt P49327)
Test: co-IP; 1 mg whole cell lysate of HepG2 or SMMC7721 cells with 2 µg FASN antibody overnight at 4 °C, Protein A/G agarose beads; western blot; normal rabbit IgG and beads as negative controls

binding: binds
B1: CD59 glycoprotein (protein, UniProt P13987 26-102)
chain: LQCYNCPNPTADCKTAVNCSSDFDACLITKAGLQVYNKCWKFEHCNFNDVTTRLRENELTYYCCKKDLCNFNEQLEN

binding: binds
B2: Signal-induced proliferation-associated protein 1 (protein, UniProt Q96FS4 1-1042)
chain: MPMWAGGVGSPRRGMAPASTDDLFARKLRQPARPPLTPHTFEPRPVRGPLLRSGSDAGEARPPTPASPRARAHSHEEASRPAATSTRLFTDPLALLGLPAEEPEPAFPPVLEPRWFAHYDVQSLLFDWAPRSQGMGSHSEASSGTLASAEDQAASSDLLHGAPGFVCELGGEGELGLGGPASPPVPPALPNAAVSILEEPQNRTSAYSLEHADLGAGYYRKYFYGKEHQNFFGMDESLGPVAVSLRREEKEGSGGGTLHSYRVIVRTTQLRTLRGTISEDALPPGPPRGLSPRKLLEHVAPQLSPSCLRLGSASPKVPRTLLTLDEQVLSFQRKVGILYCRAGQGSEEEMYNNQEAGPAFMQFLTLLGDVVRLKGFESYRAQLDTKTDSTGTHSLYTTYQDHEIMFHVSTMLPYTPNNQQQLLRKRHIGNDIVTIVFQEPGSKPFCPTTIRSHFQHVFLVVRAHTPCTPHTTYRVAVSRTQDTPAFGPALPAGGGPFAANADFRAFLLAKALNGEQAAGHARQFHAMATRTRQQYLQDLATNEVTTTSLDSASRFGLPSLGGRRRAAPRGPGAELQAAGSLVWGVRAAPGARVAAGAQASGPEGIEVPCLLGISAEALVLVAPRDGRVVFNCACRDVLAWTFSEQQLDLYHGRGEAITLRFDGSPGQAVGEVVARLQLVSRGCETRELALPRDGQGRLGFEVDAEGFVTHVERFTFAETAGLRPGARLLRVCGQTLPSLRPEAAAQLLRSAPKVCVTVLPPDESGRPRRSFSELYTLSLQEPSRRGAPDPVQDEVQGVTLLPTTKQLLHLCLQDGGSPPGPGDLAEERTEFLHSQNSLSPRSSLSDEAPVLPNTTPDLLLATTAKPSVPSADSETPLTQDRPGSPSGSEDKGNPAPELRASFLPRTLSLRNSISRIMSEAGSGTLEDEWQAISEIASTCNTILESLSREGQPIPESGDPKGTPKSDAEPEPGNLSEKVSHLESMLRKLQEDLQKEKADRAALEEEVRSLRHNNRRLQAESESAATRLLLASKQLGSPTADLA
